Assay results as given in publication PMC2920814 (PLoS ONE, 2010).

Legend:
[1] = Physiological parameters of tMCAo rats (MDS PS study)
[2] = Physiological parameters of tMCAo rats (Neurokin study); conditions: pre-MCAo treatment
[3] = post- 1mg/kg/hr group, Post-occlusion
[4] = post- 1mg/kg/hr group, Post-reperfusion
[5] = post- 1mg/kg/hr group, Pre-occlusion
[6] = post- 5mg/kg/hr group, Post-occlusion
[7] = post- 5mg/kg/hr group, Post-reperfusion
[8] = post- 5mg/kg/hr group, Pre-occlusion
[9] = post- 10mg/kg/hr group, Post-occlusion
[10] = post- 10mg/kg/hr group, Post-reperfusion
[11] = post- 10mg/kg/hr group, Pre-occlusion

Structure (SMILES): CC[C@@H](CO)Nc1nc(NCc2ccccc2)c2ncn(C(C)C)c2n1 [(S)-roscovitine]
- Body temp [1, 3]: 37.3 +/- 0.1 ^oC
- Glucose [1, 3]: 276 ± 19 mg/dL
- Body temp [1, 4]: 38.3 +/- 0.1 ^oC
- Glucose [1, 4]: 166 ± 6 mg/dL
- Body temp [1, 5]: 37.6 +/- 0.1 ^oC
- Glucose [1, 5]: 105 ± 4 mg/dL
- Body temp [1, 6]: 37.2 +/- 0.0 ^oC
- Glucose [1, 6]: 259 ± 25 mg/dL
- Body temp [1, 7]: 38.5 +/- 0.2 ^oC
- Glucose [1, 7]: 172 ± 11 mg/dL
- Body temp [1, 8]: 37.5 +/- 0.1 ^oC
- Glucose [1, 8]: 98 ± 2 mg/dL
- Body temp [1, 9]: 37.2 +/- 0.0 ^oC
- Glucose [1, 9]: 257 ± 24 mg/dL
- Body temp [1, 10]: 38.6 +/- 0.2 ^oC
- Glucose [1, 10]: 167 ± 9 mg/dL
- Body temp [1, 11]: 37.5 +/- 0.1 ^oC
- Glucose [1, 11]: 116 ± 11 mg/dL
- Body temp ([1]; pre- group, Post-occlusion): 37.5 +/- 0.1 ^oC
- Glucose ([1]; pre- group, Post-occlusion): 297 ± 26 mg/dL
- Body temp ([1]; pre- group, Post-reperfusion): 38.3 +/- 0.2 ^oC
- Glucose ([1]; pre- group, Post-reperfusion, ** p<0.05): 198 ± 313 mg/dL
- Body temp ([1]; pre- group, Pre-occlusion): 37.3 +/- 0.1 ^oC
- Glucose ([1]; pre- group, Pre-occlusion): 104 ± 5 mg/dL
- Body temp ([2]; Post-occlusion): 36.8 +/- 0.1 ^oC
- Glucose ([2]; Post-occlusion): 214 ± 15 mg/dL
- Body temp ([2]; Post-reperfusion, ** p<0.05 vs vehicle): 38.1 +/- 0.2 ^oC
- Body temp ([2]; Pre-occlusion): 37.1 +/- 0.1 ^oC
- Glucose ([2]; Pre-occlusion): 154 ± 8 mg/dL
